# Assay results: PubChem BioAssay AID2662 (National Center for Advancing Translational Sciences (NCATS), 2010)
# Sequences of proteins named here, by UniProt entry; tags and fusion partners are left off.
# UniProt Q03164, whole entry, looked up: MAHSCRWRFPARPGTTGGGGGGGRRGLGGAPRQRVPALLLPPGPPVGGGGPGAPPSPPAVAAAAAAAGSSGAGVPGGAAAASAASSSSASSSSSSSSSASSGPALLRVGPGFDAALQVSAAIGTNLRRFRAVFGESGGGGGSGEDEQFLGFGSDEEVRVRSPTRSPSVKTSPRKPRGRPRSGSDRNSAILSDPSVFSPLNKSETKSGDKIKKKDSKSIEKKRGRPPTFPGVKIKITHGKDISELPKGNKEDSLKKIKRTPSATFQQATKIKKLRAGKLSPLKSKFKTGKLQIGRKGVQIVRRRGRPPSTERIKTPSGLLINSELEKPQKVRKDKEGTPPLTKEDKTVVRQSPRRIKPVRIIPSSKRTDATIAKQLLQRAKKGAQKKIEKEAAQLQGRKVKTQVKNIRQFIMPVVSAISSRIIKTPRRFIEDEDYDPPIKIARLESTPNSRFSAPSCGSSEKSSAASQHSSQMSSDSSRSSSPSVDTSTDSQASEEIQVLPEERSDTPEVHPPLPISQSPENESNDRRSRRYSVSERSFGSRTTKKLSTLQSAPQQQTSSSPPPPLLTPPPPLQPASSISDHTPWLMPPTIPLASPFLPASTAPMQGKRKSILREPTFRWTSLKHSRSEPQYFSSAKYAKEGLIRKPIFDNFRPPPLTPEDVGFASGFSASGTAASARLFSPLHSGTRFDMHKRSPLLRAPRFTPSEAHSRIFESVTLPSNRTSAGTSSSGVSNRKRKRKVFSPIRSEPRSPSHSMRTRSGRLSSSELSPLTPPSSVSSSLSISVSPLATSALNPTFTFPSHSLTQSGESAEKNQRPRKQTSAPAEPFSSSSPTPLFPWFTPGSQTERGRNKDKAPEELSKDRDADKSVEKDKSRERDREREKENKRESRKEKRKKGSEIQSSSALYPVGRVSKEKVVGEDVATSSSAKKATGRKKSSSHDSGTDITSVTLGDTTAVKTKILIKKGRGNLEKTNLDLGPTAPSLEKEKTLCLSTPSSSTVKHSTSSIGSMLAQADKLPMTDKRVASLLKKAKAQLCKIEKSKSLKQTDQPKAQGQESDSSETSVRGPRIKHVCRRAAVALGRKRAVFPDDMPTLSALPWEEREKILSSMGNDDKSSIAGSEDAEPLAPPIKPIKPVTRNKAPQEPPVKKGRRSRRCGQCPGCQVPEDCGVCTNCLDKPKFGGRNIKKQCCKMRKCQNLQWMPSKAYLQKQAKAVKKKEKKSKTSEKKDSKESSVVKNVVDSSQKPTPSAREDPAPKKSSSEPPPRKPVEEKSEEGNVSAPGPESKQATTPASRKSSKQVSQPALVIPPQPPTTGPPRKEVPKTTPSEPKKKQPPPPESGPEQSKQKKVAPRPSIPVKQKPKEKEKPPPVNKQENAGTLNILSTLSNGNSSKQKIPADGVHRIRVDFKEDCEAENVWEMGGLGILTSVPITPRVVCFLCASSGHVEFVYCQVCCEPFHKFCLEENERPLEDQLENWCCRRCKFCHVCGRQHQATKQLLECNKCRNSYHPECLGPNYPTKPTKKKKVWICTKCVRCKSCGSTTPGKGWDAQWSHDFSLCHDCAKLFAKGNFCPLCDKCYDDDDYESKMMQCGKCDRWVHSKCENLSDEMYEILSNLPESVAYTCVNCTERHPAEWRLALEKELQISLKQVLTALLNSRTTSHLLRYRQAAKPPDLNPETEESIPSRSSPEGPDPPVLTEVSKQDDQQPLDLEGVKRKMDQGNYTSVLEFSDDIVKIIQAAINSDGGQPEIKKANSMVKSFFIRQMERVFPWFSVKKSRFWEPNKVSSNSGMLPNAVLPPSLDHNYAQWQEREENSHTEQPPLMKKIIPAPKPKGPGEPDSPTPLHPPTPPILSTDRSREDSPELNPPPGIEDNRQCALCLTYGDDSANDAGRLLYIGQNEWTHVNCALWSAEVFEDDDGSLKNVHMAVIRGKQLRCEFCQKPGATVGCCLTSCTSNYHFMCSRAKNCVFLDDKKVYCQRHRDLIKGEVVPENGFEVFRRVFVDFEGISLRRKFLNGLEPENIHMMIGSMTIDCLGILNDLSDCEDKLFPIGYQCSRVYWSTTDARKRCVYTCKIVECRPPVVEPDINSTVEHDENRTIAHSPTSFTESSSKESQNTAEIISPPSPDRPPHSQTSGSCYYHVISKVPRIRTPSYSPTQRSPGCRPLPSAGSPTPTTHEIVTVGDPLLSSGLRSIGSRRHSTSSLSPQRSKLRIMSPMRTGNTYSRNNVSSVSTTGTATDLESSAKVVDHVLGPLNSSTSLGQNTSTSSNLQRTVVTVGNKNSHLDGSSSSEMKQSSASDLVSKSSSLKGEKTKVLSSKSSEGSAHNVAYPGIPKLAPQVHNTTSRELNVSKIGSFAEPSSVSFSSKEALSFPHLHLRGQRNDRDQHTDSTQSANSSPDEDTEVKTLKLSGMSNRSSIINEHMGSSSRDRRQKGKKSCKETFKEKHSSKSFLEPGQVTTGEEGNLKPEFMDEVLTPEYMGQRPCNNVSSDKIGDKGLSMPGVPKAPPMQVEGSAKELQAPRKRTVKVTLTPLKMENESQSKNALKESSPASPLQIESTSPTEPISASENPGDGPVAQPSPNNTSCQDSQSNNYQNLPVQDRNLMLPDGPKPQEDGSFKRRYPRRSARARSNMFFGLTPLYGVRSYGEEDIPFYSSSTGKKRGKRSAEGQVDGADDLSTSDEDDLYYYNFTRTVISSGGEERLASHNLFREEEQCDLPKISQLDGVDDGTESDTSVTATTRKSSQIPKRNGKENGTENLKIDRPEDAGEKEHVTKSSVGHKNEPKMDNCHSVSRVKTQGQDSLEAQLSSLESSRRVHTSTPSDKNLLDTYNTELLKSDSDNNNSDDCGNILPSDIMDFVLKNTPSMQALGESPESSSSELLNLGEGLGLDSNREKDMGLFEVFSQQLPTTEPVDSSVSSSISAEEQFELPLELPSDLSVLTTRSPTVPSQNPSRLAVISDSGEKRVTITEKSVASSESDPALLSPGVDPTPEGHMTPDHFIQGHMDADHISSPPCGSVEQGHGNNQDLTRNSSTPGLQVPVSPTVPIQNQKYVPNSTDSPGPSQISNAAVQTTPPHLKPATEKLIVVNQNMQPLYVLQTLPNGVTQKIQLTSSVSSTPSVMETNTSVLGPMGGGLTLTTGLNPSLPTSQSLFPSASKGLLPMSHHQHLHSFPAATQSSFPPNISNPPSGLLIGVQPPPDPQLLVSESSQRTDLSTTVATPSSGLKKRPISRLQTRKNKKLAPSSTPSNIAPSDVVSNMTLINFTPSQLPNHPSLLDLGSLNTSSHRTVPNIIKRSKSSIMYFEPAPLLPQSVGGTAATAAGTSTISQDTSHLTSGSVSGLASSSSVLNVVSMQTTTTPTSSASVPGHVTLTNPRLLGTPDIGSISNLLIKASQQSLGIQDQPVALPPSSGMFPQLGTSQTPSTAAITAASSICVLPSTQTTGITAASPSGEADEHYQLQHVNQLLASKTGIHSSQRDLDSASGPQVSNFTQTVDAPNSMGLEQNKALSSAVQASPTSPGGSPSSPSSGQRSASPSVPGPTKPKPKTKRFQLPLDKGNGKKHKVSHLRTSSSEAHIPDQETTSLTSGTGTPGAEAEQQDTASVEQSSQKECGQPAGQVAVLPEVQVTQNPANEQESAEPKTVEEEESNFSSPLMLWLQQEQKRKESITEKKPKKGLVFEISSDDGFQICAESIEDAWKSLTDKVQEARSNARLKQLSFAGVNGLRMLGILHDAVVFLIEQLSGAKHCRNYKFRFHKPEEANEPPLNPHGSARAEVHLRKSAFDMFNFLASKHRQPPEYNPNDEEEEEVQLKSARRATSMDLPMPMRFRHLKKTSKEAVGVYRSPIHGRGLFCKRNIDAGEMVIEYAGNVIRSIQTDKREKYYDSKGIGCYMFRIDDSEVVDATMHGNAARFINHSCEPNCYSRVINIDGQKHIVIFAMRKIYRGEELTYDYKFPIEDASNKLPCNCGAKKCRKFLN
# The whole screen tested about 290,000 compounds, of which about 110 (0.038%) were called active. This list was built around the results that the source calls inconclusive (neither active nor inactive); the mix of calls is not that of the screen. Calls follow the shape of the dose curve; as a rule, active = well fitted inhibition curve with a large enough effect in the polarisation, with a control signal flat (not every such curve was filed as active); inconclusive = small, poorly fitted or top-dose-only effect, or effect the other way, or a change in a side signal; inactive = no such curve, though single readings can be large or run the other way; the % refers to the polarisation. Potencies beside an inconclusive call are fits to weak or partial responses and may not hold up. “Side channel” marks fits to a control or component signal instead of the main read-out.
# Target: Histone-lysine N-methyltransferase 2A (Homo sapiens) (UniProt Q03164)
# Assay: qHTS Fluorescence Polarization Assay for Inhibitors of MLL CXXC domain - DNA interaction
# Conditions: MLL-CXXC / FITC-HOXA9 DNA fluorescence polarization; activity change, negative = inhibition: at 115 µM (top of the series)
# Procedure, shortened: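 Steps: dispense CXXC domain solution (7 uM) → pin compounds or unlabeled HOX-A9 DNA control → 5 min ambient → add FLSN-HOX-A9 solution (50 nM) → spin → 30 min ambient → fluorescence polarization. Tris pH 7.5/NaCl/DTT/BSA buffer.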
# Potency is read from the fitted curve at half-maximal effect.
SMILES,Potency,"activity change, negative = inhibition"
COc1ccc(-n2c(C)cc(/C=C3/SC(=S)N(C)C3=O)c2C)cc1,"inconclusive: 35.5 µM [fluorescent, side channel, partial curve]",–
O=C(N/N=C/c1cc2c(cc1Br)OCO2)c1cccnc1,"inconclusive: 12.6 µM [fluorescent, side channel, partial curve]",–
CC(=O)CCC(=O)N1CCC(n2nccc2NC(=O)c2ccccc2C)CC1,"inconclusive: 31.6 µM [fluorescent, side channel, partial curve]",–
COc1ccccc1C(=O)NNC(=O)CCCN1C(=O)/C(=C/c2cccs2)SC1=S,"inconclusive: 31.6 µM [fluorescent, side channel, partial curve]",–
CC(C)COc1ccc(CNC(=S)Nc2ccccc2)cc1Cl,"inconclusive: 11.2 µM [fluorescent, side channel, single point]",–
COc1ccc2c(C)cc(N3CCN(c4ccc(F)cc4)CC3)nc2c1,–,inactive: 7.92%
C#CCOc1ccc(/C=C2/C(=O)N(c3cccc(C(=O)O)c3)N=C2C)cc1OC,active: 44.7 µM,–
COCc1c(C(=O)OCC(=O)c2c(N)n(CC(C)C)c(=O)n(C)c2=O)oc2ccccc12,–,inactive: 5.36%
CCOC(=O)c1c(NC(=O)c2c(Br)cnn2CC)sc(C)c1C,"inconclusive: 8.91 µM [fluorescent, side channel, single point]",–
Cc1ccc(NC(=O)CN2C(=O)N/C(=C/c3cccn3-c3ccc(C(=O)O)cc3)C2=O)cc1,–,inactive: -1.59%
CC(=O)Nc1cccc(C(=O)OCCCOc2ccc(F)cc2)c1,"inconclusive: 14.1 µM [fluorescent, side channel, single point]",–
CCC(C)NS(=O)(=O)c1ccc(F)c(C(=O)Nc2c(F)cc(F)cc2Br)c1 (stereo not given),"inconclusive: 100 µM [fluorescent, side channel, partial curve, poor fit]",–
CN1/C(=C/C=C(C#N)C#N)C(C)(C)c2ccccc21,"inconclusive: 10 µM [fluorescent, full curve]",–
Cn1c(=O)c2c(nc(NN=C3CCCCC3)n2C)n(C)c1=O,"inconclusive: 31.6 µM [quencher, side channel, single point]",–
COc1ccc(Cl)cc1Nc1nc(C)cc(=O)[nH]1,"inconclusive: 22.4 µM [quencher, side channel, partial curve]",–
O=C(NCCCN1CCOCC1)c1cc(-c2cccs2)on1,–,inactive: 2.43%
O=C(c1ccc(Cl)cc1)N1CCN(c2ccnc3cc(Cl)ccc23)CC1,–,inactive: 0.199%
Cn1c(=O)cc2c3c(c(N4CCCCC4)ccc31)C(=O)c1ccccc1-2,"inconclusive: 31.6 µM [quencher, side channel, partial curve]",–
O=C1C2=C(SCCS2)C(=O)N1CCCO,"inconclusive: 31.6 µM [inhibitor, single point]",–
O=C1CSC(=S)N1/N=C/c1cc(Br)c(O)c(Br)c1,"inconclusive: 5.62 µM [fluorescent, side channel, full curve]",–

# Full records, quoted from the list.
# CN1/C(=C/C=C(C#N)C#N)C(C)(C)c2ccccc21 is listed with Potency: inconclusive: 10 µM [fluorescent, full curve]
# COc1ccc(Cl)cc1Nc1nc(C)cc(=O)[nH]1 is listed with Potency: inconclusive: 22.4 µM [quencher, side channel, partial curve]
# O=C(c1ccc(Cl)cc1)N1CCN(c2ccnc3cc(Cl)ccc23)CC1 is listed with activity change, negative = inhibition: inactive: 0.199%

# (next part)

SMILES,Potency,"activity change, negative = inhibition"
O=C(Nc1cccc(/C=C/c2ccccn2)c1)c1cc(Cl)ccn1,"inconclusive: 14.1 µM [fluorescent, side channel, single point]",–
Cc1ccc2cc(CN(Cc3cccs3)C(=O)c3ccco3)c3nnnn3c2c1C,"inconclusive: 70.8 µM [inhibitor, single point]",–
COc1c(F)c(F)c(C(=O)Nc2c(C)cc(Br)cc2C)c(F)c1F,–,inconclusive: 7.06% [phenotype inactive]
O=C(NCCN1CCCCC1)/C(=C/c1ccco1)NC(=O)c1ccccc1,"inconclusive: 31.6 µM [fluorescent, side channel, partial curve]",–
CC1=NN(c2ccc(Cl)c(C(=O)O)c2)C(=O)C1,–,inactive: -5.59%
CCOC(=O)c1sc(-c2ccccc2)cc1NC(=O)Nc1ccccc1,–,inactive: 6.36%
Cc1ccc(Nc2n[nH]c(C)c2[N+](=O)[O-])cc1C,"inconclusive: 100 µM [fluorescent, side channel, partial curve]",–
C[C@@]12C(=O)N(c3cccc(Br)c3)C(=O)N1[C@H](c1ccc(Cl)cc1)[C@@H]1C(=O)N(C3CCCCC3)C(=O)[C@@H]12,"inconclusive: 7.94 µM [quencher, side channel, partial curve]",–
O=C(CSCc1ccc(F)cc1)Nc1ccccc1C(=O)N1CCOCC1,"inconclusive: 89.1 µM [quencher, side channel, single point]",–
C#CC[N+](C)(C)C(C#Cc1ccccc1)CC=C (stereo not given),"inconclusive: 28.2 µM [fluorescent, side channel, partial curve]",–
Cc1ccc(-c2nc(C=Nc3ccc(O)cc3)c(O)o2)cc1,"inconclusive: 2.51 µM [fluorescent, side channel, full curve]",–
CCOC(=O)c1c(-c2ccc(F)cc2)csc1/N=C/N(C)C,–,inactive: 2.19%
O=C(N/N=C/c1c(O)n(-c2ccccc2Cl)c(=O)c2ccccc12)C1COc2ccccc2O1 (stereo not given),"inconclusive: 44.7 µM [fluorescent, side channel, single point]",–
Cc1onc(-c2ccccc2)c1C(=O)NNC(=S)NC(=O)/C=C/c1ccccc1,"inconclusive: 2.51 µM [inhibitor, full curve, poor fit]",–
COC(=O)C1=C(C)N(c2cccc3ccccc23)C(=O)C1,"inconclusive: 8.91 µM [quencher, side channel, single point]",–
COc1cc(/C=N/NC(=S)Nc2cccc(S(=O)(=O)N(C)C)c2)cc(OC)c1O,–,inactive: -4.4%
CCC1c2ccc(C)n2CCN1C(=O)Nc1ccccc1C(=O)OC (stereo not given),–,inactive: 5.94%
Cc1nc(NC(=S)NC(=O)c2ccco2)sc1C(=O)N(C)C,–,inconclusive: 1.15% [phenotype inactive]
CCOC(=O)/C(C#N)=C\C=C1C=CN(C)C=C1,"inconclusive: 44.7 µM [fluorescent, side channel, partial curve]",–
S=C(NCc1ccco1)Nc1ccc2c(c1)OCCO2,"inconclusive: 14.1 µM [fluorescent, side channel, full curve]",–
